Assay results published in the supplement of paper PMC12823440, “Inhibitors supercharge kinase turnover through native proteolytic circuits” (Nature, 2025).
Where a name gives a salt, the structure may show the parent alone. Some of the results follow. The calls rarely recur for the same compound in another form.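 In K562 cells expressing nanoluciferase-fused kinases, luminescence was recorded at 4 h intervals between 2 and 18 h, normalized as percent of control with DMSO at 100% and a positive control at 0%. A significant (2 sigma) signal drop marks a time point as decreased. The authors' rule for a hit is not shown and takes in more than the number of time points.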

The chains behind the UniProt entries cited, without tags or fusion partners. Where a name states a change or a piece, a line headed by the entry shows the natural chain unless it says otherwise.
UniProt P07949, whole entry, looked up: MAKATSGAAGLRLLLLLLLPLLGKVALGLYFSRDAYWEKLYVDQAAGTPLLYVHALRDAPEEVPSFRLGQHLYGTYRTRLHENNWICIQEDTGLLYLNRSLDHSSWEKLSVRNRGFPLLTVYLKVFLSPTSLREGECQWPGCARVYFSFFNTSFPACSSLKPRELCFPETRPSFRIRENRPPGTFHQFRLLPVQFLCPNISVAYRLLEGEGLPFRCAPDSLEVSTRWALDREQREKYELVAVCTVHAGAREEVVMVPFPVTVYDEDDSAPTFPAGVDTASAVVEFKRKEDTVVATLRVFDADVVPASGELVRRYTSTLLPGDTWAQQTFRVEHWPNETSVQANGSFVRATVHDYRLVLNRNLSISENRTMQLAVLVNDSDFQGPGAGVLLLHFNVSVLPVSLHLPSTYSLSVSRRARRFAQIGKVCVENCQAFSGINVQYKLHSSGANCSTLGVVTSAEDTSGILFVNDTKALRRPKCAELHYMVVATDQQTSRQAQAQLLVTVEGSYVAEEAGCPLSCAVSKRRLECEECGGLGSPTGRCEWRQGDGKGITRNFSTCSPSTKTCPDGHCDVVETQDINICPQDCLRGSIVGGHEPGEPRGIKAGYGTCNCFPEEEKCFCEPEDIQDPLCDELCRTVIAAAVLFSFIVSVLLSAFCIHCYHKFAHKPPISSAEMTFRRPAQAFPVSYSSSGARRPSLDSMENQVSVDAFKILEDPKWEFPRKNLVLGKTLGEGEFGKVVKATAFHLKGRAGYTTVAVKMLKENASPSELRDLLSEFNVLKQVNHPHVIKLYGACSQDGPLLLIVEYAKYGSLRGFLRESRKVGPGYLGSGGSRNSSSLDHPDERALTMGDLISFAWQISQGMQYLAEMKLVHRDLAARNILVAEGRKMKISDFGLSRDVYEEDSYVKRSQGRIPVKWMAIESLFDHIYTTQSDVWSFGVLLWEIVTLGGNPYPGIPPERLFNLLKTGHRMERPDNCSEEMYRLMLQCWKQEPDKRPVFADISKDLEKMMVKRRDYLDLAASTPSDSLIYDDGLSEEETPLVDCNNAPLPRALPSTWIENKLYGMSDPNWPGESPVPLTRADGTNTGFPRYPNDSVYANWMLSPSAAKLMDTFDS
UniProt P07949, whole entry M918T, looked up: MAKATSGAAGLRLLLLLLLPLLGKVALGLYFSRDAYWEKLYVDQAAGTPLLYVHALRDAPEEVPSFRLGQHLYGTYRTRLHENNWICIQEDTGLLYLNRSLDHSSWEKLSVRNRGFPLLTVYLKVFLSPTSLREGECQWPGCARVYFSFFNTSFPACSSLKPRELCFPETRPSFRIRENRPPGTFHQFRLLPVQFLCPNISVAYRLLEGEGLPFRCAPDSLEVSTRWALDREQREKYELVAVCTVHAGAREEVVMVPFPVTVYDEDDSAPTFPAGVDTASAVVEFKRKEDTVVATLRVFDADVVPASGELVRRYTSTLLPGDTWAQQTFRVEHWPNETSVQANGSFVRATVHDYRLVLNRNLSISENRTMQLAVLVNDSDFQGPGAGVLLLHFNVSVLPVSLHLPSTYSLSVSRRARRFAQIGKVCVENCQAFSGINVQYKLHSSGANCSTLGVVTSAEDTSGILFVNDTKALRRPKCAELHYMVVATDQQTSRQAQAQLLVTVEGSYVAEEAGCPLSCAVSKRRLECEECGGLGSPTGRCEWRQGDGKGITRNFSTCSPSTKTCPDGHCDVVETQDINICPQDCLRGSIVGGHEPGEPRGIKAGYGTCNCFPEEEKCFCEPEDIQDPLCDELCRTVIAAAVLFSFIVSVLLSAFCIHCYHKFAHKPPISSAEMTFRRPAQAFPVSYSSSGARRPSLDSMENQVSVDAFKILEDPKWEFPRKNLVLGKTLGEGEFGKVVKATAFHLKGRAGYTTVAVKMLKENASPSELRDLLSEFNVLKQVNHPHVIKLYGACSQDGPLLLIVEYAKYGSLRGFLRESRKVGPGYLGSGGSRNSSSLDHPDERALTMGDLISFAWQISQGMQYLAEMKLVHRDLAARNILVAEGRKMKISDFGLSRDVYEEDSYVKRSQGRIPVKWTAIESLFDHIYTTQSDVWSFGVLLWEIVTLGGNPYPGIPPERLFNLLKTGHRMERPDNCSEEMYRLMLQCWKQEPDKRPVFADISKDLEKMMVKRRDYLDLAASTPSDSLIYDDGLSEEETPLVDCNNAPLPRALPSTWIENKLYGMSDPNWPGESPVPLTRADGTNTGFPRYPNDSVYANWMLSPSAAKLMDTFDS
UniProt Q9BRS2: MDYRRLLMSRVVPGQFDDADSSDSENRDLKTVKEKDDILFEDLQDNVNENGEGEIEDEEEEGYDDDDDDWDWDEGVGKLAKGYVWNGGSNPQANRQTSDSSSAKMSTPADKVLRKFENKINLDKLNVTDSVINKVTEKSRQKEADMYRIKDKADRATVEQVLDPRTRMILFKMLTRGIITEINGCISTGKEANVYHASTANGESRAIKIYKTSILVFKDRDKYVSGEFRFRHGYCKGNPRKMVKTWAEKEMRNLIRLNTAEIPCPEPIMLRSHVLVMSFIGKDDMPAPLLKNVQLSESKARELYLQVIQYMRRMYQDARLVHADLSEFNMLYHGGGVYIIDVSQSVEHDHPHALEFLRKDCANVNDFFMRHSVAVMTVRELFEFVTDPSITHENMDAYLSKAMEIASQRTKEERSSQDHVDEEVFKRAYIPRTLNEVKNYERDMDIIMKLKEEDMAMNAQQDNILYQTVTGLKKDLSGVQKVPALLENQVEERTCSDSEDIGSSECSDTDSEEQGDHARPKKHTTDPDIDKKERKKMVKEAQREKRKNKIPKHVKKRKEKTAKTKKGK
UniProt Q13546: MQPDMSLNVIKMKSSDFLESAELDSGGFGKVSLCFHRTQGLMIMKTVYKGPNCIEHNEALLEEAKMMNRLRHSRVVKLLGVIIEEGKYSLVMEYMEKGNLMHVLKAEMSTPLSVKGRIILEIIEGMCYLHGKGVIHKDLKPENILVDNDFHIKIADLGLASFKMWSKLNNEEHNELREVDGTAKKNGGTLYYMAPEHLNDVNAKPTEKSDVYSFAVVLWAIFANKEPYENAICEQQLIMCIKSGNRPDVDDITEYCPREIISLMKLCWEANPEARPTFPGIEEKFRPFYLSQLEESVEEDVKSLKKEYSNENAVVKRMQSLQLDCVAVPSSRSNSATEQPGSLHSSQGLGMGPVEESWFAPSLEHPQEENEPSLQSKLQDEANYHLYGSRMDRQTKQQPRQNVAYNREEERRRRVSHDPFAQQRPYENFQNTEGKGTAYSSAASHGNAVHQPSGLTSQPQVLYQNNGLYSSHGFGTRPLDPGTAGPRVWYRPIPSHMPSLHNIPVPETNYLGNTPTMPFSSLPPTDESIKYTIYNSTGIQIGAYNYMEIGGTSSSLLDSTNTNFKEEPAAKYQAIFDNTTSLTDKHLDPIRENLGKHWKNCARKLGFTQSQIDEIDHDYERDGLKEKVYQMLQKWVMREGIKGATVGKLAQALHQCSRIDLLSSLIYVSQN
UniProt Q01974, whole entry: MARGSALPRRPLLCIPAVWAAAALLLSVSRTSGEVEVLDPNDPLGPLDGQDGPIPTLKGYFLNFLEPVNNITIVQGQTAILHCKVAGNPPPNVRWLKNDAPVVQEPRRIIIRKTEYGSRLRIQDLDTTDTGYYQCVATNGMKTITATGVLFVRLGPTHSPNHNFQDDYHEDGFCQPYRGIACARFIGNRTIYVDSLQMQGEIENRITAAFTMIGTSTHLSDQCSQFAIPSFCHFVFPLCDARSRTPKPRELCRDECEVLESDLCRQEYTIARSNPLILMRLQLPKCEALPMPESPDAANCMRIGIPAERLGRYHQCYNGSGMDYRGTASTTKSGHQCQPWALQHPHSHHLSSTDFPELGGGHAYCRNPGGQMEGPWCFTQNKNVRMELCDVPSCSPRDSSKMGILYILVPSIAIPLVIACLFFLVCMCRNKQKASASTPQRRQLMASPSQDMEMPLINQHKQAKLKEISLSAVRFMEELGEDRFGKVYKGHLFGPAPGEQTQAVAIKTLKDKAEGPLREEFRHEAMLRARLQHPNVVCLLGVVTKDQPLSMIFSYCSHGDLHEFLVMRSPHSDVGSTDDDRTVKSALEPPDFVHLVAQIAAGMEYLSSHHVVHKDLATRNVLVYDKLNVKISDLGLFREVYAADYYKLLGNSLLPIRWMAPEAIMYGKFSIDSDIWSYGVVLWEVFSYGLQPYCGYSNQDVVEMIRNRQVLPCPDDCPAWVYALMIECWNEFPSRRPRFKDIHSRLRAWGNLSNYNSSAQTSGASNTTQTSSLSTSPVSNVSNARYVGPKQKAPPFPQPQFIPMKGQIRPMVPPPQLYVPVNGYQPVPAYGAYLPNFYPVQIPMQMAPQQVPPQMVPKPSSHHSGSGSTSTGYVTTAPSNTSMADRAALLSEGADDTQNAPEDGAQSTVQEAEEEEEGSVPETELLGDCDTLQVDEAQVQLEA
UniProt Q15418, whole entry: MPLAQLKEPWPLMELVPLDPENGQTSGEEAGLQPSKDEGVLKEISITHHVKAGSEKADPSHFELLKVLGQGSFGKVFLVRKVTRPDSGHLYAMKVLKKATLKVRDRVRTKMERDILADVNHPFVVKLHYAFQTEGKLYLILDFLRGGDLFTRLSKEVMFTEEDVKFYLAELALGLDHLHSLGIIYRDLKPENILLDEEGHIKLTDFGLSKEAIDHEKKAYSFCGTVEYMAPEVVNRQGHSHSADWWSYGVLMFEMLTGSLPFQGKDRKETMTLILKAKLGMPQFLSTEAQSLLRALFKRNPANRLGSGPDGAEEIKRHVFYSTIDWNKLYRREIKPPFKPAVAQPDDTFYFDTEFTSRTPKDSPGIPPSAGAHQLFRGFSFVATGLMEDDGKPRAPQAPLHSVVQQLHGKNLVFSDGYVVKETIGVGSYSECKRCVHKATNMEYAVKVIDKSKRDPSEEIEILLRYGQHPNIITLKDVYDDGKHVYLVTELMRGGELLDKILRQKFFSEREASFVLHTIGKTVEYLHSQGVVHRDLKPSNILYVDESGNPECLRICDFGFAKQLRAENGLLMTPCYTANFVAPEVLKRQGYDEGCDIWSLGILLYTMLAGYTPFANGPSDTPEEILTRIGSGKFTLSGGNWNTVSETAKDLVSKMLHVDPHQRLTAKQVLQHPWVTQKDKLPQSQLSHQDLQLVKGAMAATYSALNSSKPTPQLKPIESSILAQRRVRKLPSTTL
UniProt Q9NYA1, whole entry: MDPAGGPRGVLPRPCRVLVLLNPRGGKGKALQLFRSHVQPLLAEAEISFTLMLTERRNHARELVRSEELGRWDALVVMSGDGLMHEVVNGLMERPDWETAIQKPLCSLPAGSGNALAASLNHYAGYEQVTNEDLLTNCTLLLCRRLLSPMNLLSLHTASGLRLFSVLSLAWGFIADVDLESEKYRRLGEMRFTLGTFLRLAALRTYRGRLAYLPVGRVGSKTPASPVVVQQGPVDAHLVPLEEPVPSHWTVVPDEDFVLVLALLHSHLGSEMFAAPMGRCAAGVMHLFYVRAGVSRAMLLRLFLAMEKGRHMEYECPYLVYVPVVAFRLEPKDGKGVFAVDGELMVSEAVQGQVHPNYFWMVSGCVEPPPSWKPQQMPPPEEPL
UniProt Q9Y6E0: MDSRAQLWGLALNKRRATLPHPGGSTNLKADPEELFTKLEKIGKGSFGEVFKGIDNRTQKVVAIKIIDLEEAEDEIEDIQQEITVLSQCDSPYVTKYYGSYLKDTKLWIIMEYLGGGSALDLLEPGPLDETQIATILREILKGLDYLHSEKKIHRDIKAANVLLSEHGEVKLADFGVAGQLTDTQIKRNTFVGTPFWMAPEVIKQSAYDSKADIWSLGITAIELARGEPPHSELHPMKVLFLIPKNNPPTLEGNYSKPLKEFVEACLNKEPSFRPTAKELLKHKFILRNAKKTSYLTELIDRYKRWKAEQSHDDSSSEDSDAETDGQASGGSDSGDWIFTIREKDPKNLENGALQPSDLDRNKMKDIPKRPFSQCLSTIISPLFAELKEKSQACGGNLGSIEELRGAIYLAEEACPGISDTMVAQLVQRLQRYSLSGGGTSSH

Tests used:
Assay in all cases: kinase-Nluc reporter destabilization hit call (1 = scored as downregulated) (binary); higher = compound decreases kinase abundance
Settings in all cases: K562; 2-18 h
RET = RET (UniProt P07949)
[1] = biological target: RET_M918T (clone: RET_mut) (UniProt P07949)
RIOK1 = RIOK1 (UniProt Q9BRS2)
RIPK1 = RIPK1 (UniProt Q13546)
RIPK2 = RIPK2 (UniProt O43353)
ROR2 = ROR2 (UniProt Q01974)
RPS6KA1 = RPS6KA1 (UniProt Q15418)
SPHK1 = SPHK1 (UniProt Q9NYA1)
SRC = SRC (UniProt P12931)
STK24 = STK24 (UniProt Q9Y6E0)

Measured: kinase-Nluc reporter destabilization hit call

O=C(O)CCc1ccc(O)c(O)c1 [Dihydrocaffeic acid] (10 µM)
inactive: RET 0 | [1] 0 | RIOK1 = 0 | RIPK1 = 0 | RIPK2 = 0 | ROR2 = 0 | RPS6KA1 = 0 | SPHK1 = 0 | SRC 0 | STK24 = 0

Cc1c(CN2CCN(C(=O)[C@H](C)O)CC2)sc2c(N3CCOCC3)nc(-c3cnc(N)nc3)nc12 [Apitolisib] (10 µM)
inactive: RET 0 | [1] 0 | RIOK1 = 0 | RIPK1 = 0 | RIPK2 = 0 | ROR2 = 0 | RPS6KA1 = 0 | SPHK1 = 0 | SRC 0 | STK24 = 0

CS(=O)(=O)c1ccc(-c2noc(C(F)(F)F)c2-c2ccccc2)cc1 (10 µM)
inactive: RET 0 | [1] 0 | RIOK1 = 0 | RIPK1 = 0 | RIPK2 = 0 | ROR2 = 0 | RPS6KA1 = 0 | SPHK1 = 0 | SRC 0 | STK24 = 0

Nc1ncnc2c1c(-c1ccc(Oc3ccccc3)cc1)nn2C1CCNCC1 [N-piperidine Ibrutinib (hydrochloride)] (10 µM)
inactive: RET 0 | [1] 0 | RIOK1 = 0 | RIPK1 = 0 | RIPK2 = 0 | ROR2 = 0 | RPS6KA1 = 0 | SPHK1 = 0 | SRC 0 | STK24 = 0

CC(c1ccc(-c2cnc3c(-c4ccc(S(N)(=O)=O)c5ccccc45)cnn3c2)cc1)N1CCCC1 (stereo not given) (2.5 µM)
inactive: RET 0 | [1] 0 | RIOK1 = 0 | RIPK1 = 0 | RIPK2 = 0 | ROR2 = 0 | RPS6KA1 = 0 | SPHK1 = 0 | SRC 0 | STK24 = 0

Cc1cc(-c2cc(OC(=O)c3ccccc3)ccc2Cl)cc2nnc(Nc3ccc(OCCN4CCCC4)cc3)nc12 (0.5 µM)
inactive: RET 0 | [1] 0 | RIOK1 = 0 | RIPK1 = 0 | ROR2 = 0 | RPS6KA1 = 0 | SPHK1 = 0 | SRC 0 | STK24 = 0
active: RIPK2 = 1

CC1=C2C(=O)O[C@@H](c3ccoc3)[C@]2(C)CCC1 [Fraxinellone] (10 µM)
inactive: RET 0 | [1] 0 | RIOK1 = 0 | RIPK1 = 0 | RIPK2 = 0 | ROR2 = 0 | RPS6KA1 = 0 | SPHK1 = 0 | SRC 0 | STK24 = 0

CNCc1ccccc1-c1csc([C@@H](C)Nc2nc(C)nc3cc(OC)c(OC)cc23)c1 (2.5 µM)
inactive: RET 0 | [1] 0 | RIOK1 = 0 | RIPK1 = 0 | RIPK2 = 0 | ROR2 = 0 | RPS6KA1 = 0 | SPHK1 = 0 | SRC 0 | STK24 = 0

CC(C)=CCC[C@](C)(O[C@@H]1O[C@H](CO)[C@@H](O)[C@H](O)[C@H]1O)[C@H]1CC[C@]2(C)[C@@H]1[C@H](O)C[C@@H]1[C@@]3(C)CC[C@H](O)C(C)(C)[C@@H]3[C@@H](O[C@@H]3O[C@H](CO)[C@@H](O)[C@H](O)[C@H]3O[C@@H]3O[C@@H](C)[C@H](O)[C@@H](O)[C@H]3O)C[C@]12C [Ginsenoside Re] (10 µM)
inactive: RET 0 | [1] 0 | RIOK1 = 0 | RIPK1 = 0 | RIPK2 = 0 | ROR2 = 0 | RPS6KA1 = 0 | SPHK1 = 0 | SRC 0 | STK24 = 0

CC[C@@]1(c2ccccc2)C2=C(CC(C)(C)CC2=O)Nc2[nH]ncc21 (10 µM)
inactive: RET 0 | [1] 0 | RIOK1 = 0 | RIPK1 = 0 | RIPK2 = 0 | ROR2 = 0 | RPS6KA1 = 0 | SPHK1 = 0 | SRC 0 | STK24 = 0

COc1cc(C(N)=O)nc(-c2cccc(C#C[C@]3(O)CCN(C)C3=O)c2)c1 (10 µM)
inactive: RET 0 | [1] 0 | RIOK1 = 0 | RIPK1 = 0 | RIPK2 = 0 | ROR2 = 0 | RPS6KA1 = 0 | SPHK1 = 0 | SRC 0 | STK24 = 0

OCCNC1CCCc2c1[nH]c1ccc(-c3ccccc3)cc21 (stereo not given) (2.5 µM)
inactive: RET 0 | [1] 0 | RIOK1 = 0 | RIPK1 = 0 | RIPK2 = 0 | ROR2 = 0 | RPS6KA1 = 0 | SPHK1 = 0 | SRC 0 | STK24 = 0

A draw from above in order of molar mass, ascending:
CC1=C2C(=O)O[C@@H](c3ccoc3)[C@]2(C)CCC1 [Fraxinellone] (10 µM)
inactive: RET 0 | [1] 0 | RIOK1 = 0 | RIPK1 = 0 | RIPK2 = 0 | ROR2 = 0 | RPS6KA1 = 0 | SPHK1 = 0 | SRC 0 | STK24 = 0

Nc1ncnc2c1c(-c1ccc(Oc3ccccc3)cc1)nn2C1CCNCC1 [N-piperidine Ibrutinib (hydrochloride)] (10 µM)
inactive: RET 0 | [1] 0 | RIOK1 = 0 | RIPK1 = 0 | RIPK2 = 0 | ROR2 = 0 | RPS6KA1 = 0 | SPHK1 = 0 | SRC 0 | STK24 = 0

CNCc1ccccc1-c1csc([C@@H](C)Nc2nc(C)nc3cc(OC)c(OC)cc23)c1 (2.5 µM)
inactive: RET 0 | [1] 0 | RIOK1 = 0 | RIPK1 = 0 | RIPK2 = 0 | ROR2 = 0 | RPS6KA1 = 0 | SPHK1 = 0 | SRC 0 | STK24 = 0

CC(c1ccc(-c2cnc3c(-c4ccc(S(N)(=O)=O)c5ccccc45)cnn3c2)cc1)N1CCCC1 (stereo not given) (2.5 µM)
inactive: RET 0 | [1] 0 | RIOK1 = 0 | RIPK1 = 0 | RIPK2 = 0 | ROR2 = 0 | RPS6KA1 = 0 | SPHK1 = 0 | SRC 0 | STK24 = 0

CC(C)=CCC[C@](C)(O[C@@H]1O[C@H](CO)[C@@H](O)[C@H](O)[C@H]1O)[C@H]1CC[C@]2(C)[C@@H]1[C@H](O)C[C@@H]1[C@@]3(C)CC[C@H](O)C(C)(C)[C@@H]3[C@@H](O[C@@H]3O[C@H](CO)[C@@H](O)[C@H](O)[C@H]3O[C@@H]3O[C@@H](C)[C@H](O)[C@@H](O)[C@H]3O)C[C@]12C [Ginsenoside Re] (10 µM)
inactive: RET 0 | [1] 0 | RIOK1 = 0 | RIPK1 = 0 | RIPK2 = 0 | ROR2 = 0 | RPS6KA1 = 0 | SPHK1 = 0 | SRC 0 | STK24 = 0

Continuation:

CCOc1cc(C(=O)N2CCC(N3CCN(C)CC3)CC2)ccc1Nc1ncc2c(n1)N(C1CCCC1)c1ccccc1C(=O)N2C (10 µM)
inactive: RET 0 | [1] 0 | RIOK1 = 0 | RIPK1 = 0 | RIPK2 = 0 | ROR2 = 0 | RPS6KA1 = 0 | SPHK1 = 0 | SRC 0 | STK24 = 0

Cc1cc(NC(=O)c2cccc(NC(=O)/C=C/CN(C)C)c2)ccc1Nc1nccc(-c2cccnc2)n1 (10 µM)
inactive: RET 0 | [1] 0 | RIOK1 = 0 | RIPK1 = 0 | RIPK2 = 0 | ROR2 = 0 | RPS6KA1 = 0 | SPHK1 = 0 | SRC 0 | STK24 = 0

O=C(Nc1ccc2[nH]nc(-c3ccncc3)c2c1)[C@@H]1CCN(CC(=O)N2CCN(c3ccc(-c4ncccn4)cc3)CC2)C1 (2.5 µM)
inactive: RET 0 | [1] 0 | RIOK1 = 0 | RIPK1 = 0 | RIPK2 = 0 | ROR2 = 0 | RPS6KA1 = 0 | SPHK1 = 0 | SRC 0 | STK24 = 0

CN1C(=O)C(Cc2c[nH]c3ccccc23)NC1=S (stereo not given) [Necrostatin-1] (10 µM)
inactive: RET 0 | [1] 0 | RIOK1 = 0 | RIPK1 = 0 | RIPK2 = 0 | ROR2 = 0 | RPS6KA1 = 0 | SPHK1 = 0 | SRC 0 | STK24 = 0

CC/C=C\C/C=C\C/C=C\CCCCCCCC(=O)O [α-Linolenic acid] (10 µM)
inactive: RET 0 | [1] 0 | RIOK1 = 0 | RIPK1 = 0 | RIPK2 = 0 | ROR2 = 0 | RPS6KA1 = 0 | SPHK1 = 0 | SRC 0 | STK24 = 0

O=C(NCCCNc1nc(Nc2cccc(NC(=O)N3CCCC3)c2)ncc1I)c1cccs1 (2.5 µM)
inactive: RET 0 | [1] 0 | RIOK1 = 0 | RIPK1 = 0 | RIPK2 = 0 | ROR2 = 0 | RPS6KA1 = 0 | SPHK1 = 0 | SRC 0 | STK24 = 0

C[C@]1(O)CCC[C@@H]1n1c(=O)c(C(F)F)cc2cnc(NC3CCN(S(C)(=O)=O)CC3)nc21 (10 µM)
inactive: RET 0 | [1] 0 | RIOK1 = 0 | RIPK1 = 0 | RIPK2 = 0 | ROR2 = 0 | RPS6KA1 = 0 | SPHK1 = 0 | SRC 0 | STK24 = 0

COc1ccc(-c2ccc3c(N4CCOC[C@@H]4C)nc(N4CCOC[C@@H]4C)nc3n2)cc1CO (2.5 µM)
inactive: RET 0 | [1] 0 | RIOK1 = 0 | RIPK1 = 0 | RIPK2 = 0 | ROR2 = 0 | RPS6KA1 = 0 | SPHK1 = 0 | SRC 0 | STK24 = 0

COc1ncc(-c2nc(N3CCOCC3)nc3c(CN4CCC(C(C)(C)O)CC4)cc(F)cc23)cc1NS(C)(=O)=O [Linperlisib] (10 µM)
inactive: RET 0 | [1] 0 | RIOK1 = 0 | RIPK1 = 0 | RIPK2 = 0 | ROR2 = 0 | RPS6KA1 = 0 | SPHK1 = 0 | SRC 0 | STK24 = 0

O=C(NC(NC(=S)Nc1ccc(F)c([N+](=O)[O-])c1)C(Cl)(Cl)Cl)C(c1ccccc1)c1ccccc1 (stereo not given) (10 µM)
inactive: RET 0 | [1] 0 | RIOK1 = 0 | RIPK1 = 0 | RIPK2 = 0 | ROR2 = 0 | RPS6KA1 = 0 | SPHK1 = 0 | SRC 0 | STK24 = 0

COc1cc(F)c(F)c(Nc2ccc(I)cc2F)c1NS(=O)(=O)C1(C[C@H](O)CO)CC1 [Refametinib] (10 µM)
inactive: RET 0 | [1] 0 | RIOK1 = 0 | RIPK1 = 0 | RIPK2 = 0 | ROR2 = 0 | RPS6KA1 = 0 | SPHK1 = 0 | SRC 0 | STK24 = 0

C=C1C(=O)O[C@@H]2C[C@@]3(C)CCC[C@H](C)C3=C[C@H]12 [Alantolactone] (10 µM)
inactive: RET 0 | [1] 0 | RIOK1 = 0 | RIPK1 = 0 | RIPK2 = 0 | ROR2 = 0 | RPS6KA1 = 0 | SPHK1 = 0 | SRC 0 | STK24 = 0

Cc1cc(Nc2cc3ncccc3c(N[C@@H]3C[C@H]4CC[C@@H](C3)N4CCC#N)n2)n[nH]1 [Izencitinib] (10 µM)
inactive: RET 0 | [1] 0 | RIOK1 = 0 | RIPK1 = 0 | RIPK2 = 0 | ROR2 = 0 | RPS6KA1 = 0 | SPHK1 = 0 | SRC 0 | STK24 = 0

OC[C@H]1O[C@@H](Oc2cc3c(O)cc(O)cc3[o+]c2-c2cc(O)c(O)c(O)c2)[C@H](O)[C@@H](O)[C@@H]1O [Delphinidin 3-glucoside (chloride)] (10 µM)
inactive: RET 0 | [1] 0 | RIOK1 = 0 | RIPK1 = 0 | RIPK2 = 0 | ROR2 = 0 | RPS6KA1 = 0 | SPHK1 = 0 | SRC 0 | STK24 = 0

CO[C@H]1C[C@@H]2CC[C@@H](C)[C@@](O)(O2)C(=O)C(=O)N2CCCC[C@H]2C(=O)O[C@H]([C@H](C)C[C@@H]2CC[C@@H](O)[C@H](OC)C2)CC(=O)[C@H](C)/C=C(\C)[C@@H](O)[C@@H](OC)C(=O)[C@H](C)C[C@H](C)/C=C/C=C/C=C/1C [Rapamycin] (10 µM)
inactive: RET 0 | [1] 0 | RIOK1 = 0 | RIPK1 = 0 | RIPK2 = 0 | ROR2 = 0 | RPS6KA1 = 0 | SPHK1 = 0 | SRC 0 | STK24 = 0

NCCN1CCN(C/C=C/C(=O)N2CCC[C@@H](n3nc(-c4ccc(Oc5ccccc5)cc4)c4c(N)ncnc43)C2)CC1 [Ibrutinib-MPEA] (10 µM)
inactive: RET 0 | [1] 0 | RIOK1 = 0 | RIPK1 = 0 | RIPK2 = 0 | ROR2 = 0 | RPS6KA1 = 0 | SPHK1 = 0 | SRC 0 | STK24 = 0
